Assay results as given in article doi:10.1101/2019.12.13.876029.
No constants are given. Whether binding was seen depends on the method and setting. Binding seen in cells or lysates may run through a third protein. Some binding calls cover weakened binding; strength is not graded here. Sequences can lack the tags named with a protein.

Amino acid sequences for entries named in this document (tags omitted).
UniProt P52286: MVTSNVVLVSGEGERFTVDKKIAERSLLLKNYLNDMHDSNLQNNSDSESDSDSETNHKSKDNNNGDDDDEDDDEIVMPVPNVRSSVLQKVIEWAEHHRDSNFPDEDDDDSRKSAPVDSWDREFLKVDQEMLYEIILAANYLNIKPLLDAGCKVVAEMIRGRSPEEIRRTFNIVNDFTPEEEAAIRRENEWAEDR
UniProt P25694: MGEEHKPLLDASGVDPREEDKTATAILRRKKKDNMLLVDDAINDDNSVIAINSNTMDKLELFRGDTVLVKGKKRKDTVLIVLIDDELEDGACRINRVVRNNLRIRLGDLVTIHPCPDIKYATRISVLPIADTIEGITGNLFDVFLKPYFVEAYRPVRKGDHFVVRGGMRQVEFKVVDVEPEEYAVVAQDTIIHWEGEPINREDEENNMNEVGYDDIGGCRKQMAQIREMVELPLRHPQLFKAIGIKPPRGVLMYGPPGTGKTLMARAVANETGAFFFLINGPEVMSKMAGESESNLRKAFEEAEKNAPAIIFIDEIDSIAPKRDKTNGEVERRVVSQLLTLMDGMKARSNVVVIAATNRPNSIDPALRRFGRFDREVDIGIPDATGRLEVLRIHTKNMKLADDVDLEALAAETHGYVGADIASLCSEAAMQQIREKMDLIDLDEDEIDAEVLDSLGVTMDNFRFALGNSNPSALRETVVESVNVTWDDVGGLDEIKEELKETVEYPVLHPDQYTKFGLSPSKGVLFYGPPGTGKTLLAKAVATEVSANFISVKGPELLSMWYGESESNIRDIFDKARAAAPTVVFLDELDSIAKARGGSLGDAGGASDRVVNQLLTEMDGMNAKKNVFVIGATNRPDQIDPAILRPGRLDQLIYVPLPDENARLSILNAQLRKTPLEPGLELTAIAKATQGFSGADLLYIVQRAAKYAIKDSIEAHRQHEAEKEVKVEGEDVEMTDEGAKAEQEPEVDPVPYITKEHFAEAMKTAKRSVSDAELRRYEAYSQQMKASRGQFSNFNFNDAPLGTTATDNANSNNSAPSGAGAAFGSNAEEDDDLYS

T1: 12xMyc-Met30 (F-box protein Met30 of SCF^Met30) (budding yeast (endogenous in the yeast strains)) (UniProt P39014)
T1 sequence: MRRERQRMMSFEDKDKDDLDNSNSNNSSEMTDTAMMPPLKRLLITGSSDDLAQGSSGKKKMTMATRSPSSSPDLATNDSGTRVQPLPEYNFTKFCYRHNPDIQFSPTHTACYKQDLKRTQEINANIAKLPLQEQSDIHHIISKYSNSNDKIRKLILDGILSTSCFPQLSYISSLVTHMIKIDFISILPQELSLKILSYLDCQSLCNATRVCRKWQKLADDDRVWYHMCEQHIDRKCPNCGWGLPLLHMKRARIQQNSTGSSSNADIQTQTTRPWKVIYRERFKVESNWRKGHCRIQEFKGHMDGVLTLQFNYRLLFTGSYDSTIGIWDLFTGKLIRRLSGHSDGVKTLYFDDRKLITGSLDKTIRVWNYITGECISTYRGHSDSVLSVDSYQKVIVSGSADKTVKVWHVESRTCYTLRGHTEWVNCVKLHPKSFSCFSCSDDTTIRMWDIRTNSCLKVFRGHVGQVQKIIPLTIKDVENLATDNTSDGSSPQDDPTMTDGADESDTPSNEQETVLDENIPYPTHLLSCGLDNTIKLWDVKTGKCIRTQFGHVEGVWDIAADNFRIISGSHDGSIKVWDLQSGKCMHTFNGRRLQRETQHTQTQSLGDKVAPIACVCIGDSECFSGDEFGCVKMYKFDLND

B1: Shp1 ΔUBXCt-3xHA (domain or fragment, UniProt P34223 1-400)
chain: MAEIPDETIQQFMALTNVSHNIAVQYLSEFGDLNEALNSYYASQTDDQKDRREEAHWNRQQEKALKQEAFSTNSSNKAINTEHVGGLCPKPGSSQGSNEYLKRKGSTSPEPTKGSSRSGSGNNSRFMSFSDMVRGQADDDDEDQPRNTFAGGETSGLEVTDPSDPNSLLKDLLEKARRGGQMGAENGFRDDEDHEMGANRFTGRGFRLGSTIDAADEVVEDNTSQSQRRPEKVTREITFWKEGFQVADGPLYRYDDPANSFYLSELNQGRAPLKLLDVQFGQEVEVNVYKKLDESYKAPTRKLGGFSGQGQRLGSPIPGESSPAEVPKNETPAAQEQPMPDNEPKQGDTSIQIRYANGKREVLHCNSTDTVKFLYEHVTSNANTDPSRNFTLNYAFPIKP
B2: Shp1-3xHA (wild type) (protein, UniProt P34223 1-423)
chain: MAEIPDETIQQFMALTNVSHNIAVQYLSEFGDLNEALNSYYASQTDDQKDRREEAHWNRQQEKALKQEAFSTNSSNKAINTEHVGGLCPKPGSSQGSNEYLKRKGSTSPEPTKGSSRSGSGNNSRFMSFSDMVRGQADDDDEDQPRNTFAGGETSGLEVTDPSDPNSLLKDLLEKARRGGQMGAENGFRDDEDHEMGANRFTGRGFRLGSTIDAADEVVEDNTSQSQRRPEKVTREITFWKEGFQVADGPLYRYDDPANSFYLSELNQGRAPLKLLDVQFGQEVEVNVYKKLDESYKAPTRKLGGFSGQGQRLGSPIPGESSPAEVPKNETPAAQEQPMPDNEPKQGDTSIQIRYANGKREVLHCNSTDTVKFLYEHVTSNANTDPSRNFTLNYAFPIKPISNDETTLKDADLLNSVVVQRWA
B3: Shp1 ΔCIM2-3xHA (protein, UniProt P34223 1-423)
chain: MAEIPDETIQQFMALTNVSHNIAVQYLSEFGDLNEALNSYYASQTDDQKDRREEAHWNRQQEKALKQEAFSTNSSNKAINTEHVGGLCPKPGSSQGSNEYLKRKGSTSPEPTKGSSRSGSGNNSRFMSFSDMVRGQADDDDEDQPRNTFAGGETSGLEVTDPSDPNSLLKDLLEKARRGGQMGAENGFRDDEDHEMGANRFTGRGFRLGSTIDAADEVVEDNTSQSQRRPEKVTREITFWKEGFQVADGPLYRYDDPANSFYLSELNQGRAPLKLLDVQFGQEVEVNVYKKLDESYKAPTRKLGGFSGQGQRLGSPIPGESSPAEVPKNETPAAQEQPMPDNEPKQGDTSIQIRYANGKREVLHCNSTDTVKFLYEHVTSNANTDPSRNFTLNYAGAGKPISNDETTLKDADLLNSVVVQRWA
B4: Shp1-3xHA-AID (protein, UniProt P34223 1-423)
chain: MAEIPDETIQQFMALTNVSHNIAVQYLSEFGDLNEALNSYYASQTDDQKDRREEAHWNRQQEKALKQEAFSTNSSNKAINTEHVGGLCPKPGSSQGSNEYLKRKGSTSPEPTKGSSRSGSGNNSRFMSFSDMVRGQADDDDEDQPRNTFAGGETSGLEVTDPSDPNSLLKDLLEKARRGGQMGAENGFRDDEDHEMGANRFTGRGFRLGSTIDAADEVVEDNTSQSQRRPEKVTREITFWKEGFQVADGPLYRYDDPANSFYLSELNQGRAPLKLLDVQFGQEVEVNVYKKLDESYKAPTRKLGGFSGQGQRLGSPIPGESSPAEVPKNETPAAQEQPMPDNEPKQGDTSIQIRYANGKREVLHCNSTDTVKFLYEHVTSNANTDPSRNFTLNYAFPIKPISNDETTLKDADLLNSVVVQRWA
B5: Npl4-3xHA (protein, UniProt P33755 1-580)
chain: MLIRFRSKNGTHRVSCQENDLFGTVIEKLVGNLDPNADVDTFTVCEKPGQGIHAVSELADRTVMDLGLKHGDMLILNYSDKPANEKDGVNVEIGSVGIDSKGIRQHRYGPLRIKELAVDEELEKEDGLIPRQKSKLCKHGDRGMCEYCSPLPPWDKEYHEKNKIKHISFHSYLKKLNENANKKENGSSYISPLSEPDFRINKRCHNGHEPWPRGICSKCQPSAITLQQQEFRMVDHVEFQKSEIINEFIQAWRYTGMQRFGYMYGSYSKYDNTPLGIKAVVEAIYEPPQHDEQDGLTMDVEQVKNEMLQIDRQAQEMGLSRIGLIFTDLSDAGAGDGSVFCKRHKDSFFLSSLEVIMAARHQTRHPNVSKYSEQGFFSSKFVTCVISGNLEGEIDISSYQVSTEAEALVTADMISGSTFPSMAYINDTTDERYVPEIFYMKSNEYGITVKENAKPAFPVDYLLVTLTHGFPNTDTETNSKFVSSTGFPWSNRQAMGQSQDYQELKKYLFNVASSGDFNLLHEKISNFHLLLYINSLQILSPDEWKLLIESAVKNEWEESLLKLVSSAGWQTLVMILQESG

molecular target: T1, 12xMyc-Met30 (F-box protein Met30 of SCF^Met30) (budding yeast (endogenous in the yeast strains)); test: co-IP

binding, binds:
Skp1 (from UniProt P52286 1-194)
Cdc48-RGS6H (AAA-ATPase Cdc48) (from UniProt P25694 1-835) (enzyme)
B1
B2
B3
B4
B5
